Values from PubChem BioAssay AID1224828 (NIAID, 2016)
Assay: 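Regulators linking TLR4 signalling to p65 nuclear translocation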 (primary screen). System: mouse RAW264.7 G9 macrophage reporter cells (GFP-p65, Tnf promoter-mCherry). Knock-down reagent: siRNA pool against mouse genes, 100 nM. Timing: 2 days siRNA transfection, then 40 min LPS before fixation. Conditions: LPS (Salmonella minnesota R595) at 10 ng/ml. Read-out: 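Imaged p65 nuclear translocation ratio, normalised to the plate median, converted to robust z-scores and averaged across two replicates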. Direction: p65 translocation robust z-score: higher = more nuclear NF-kappaB p65 after LPS than the plate median; nuclear/cytoplasmic p65 ratio: higher = more nuclear NF-kappaB p65. Call rule: 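Called active when z exceeds 3.3 or falls under -1.56 (median of Tlr4 controls), giving activity score of at least 50; no calls for control wells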. Meaning of the calls: active = hit (p65 shift raised or lowered); inactive = no clear change.
The deposit covers about 17,000 reagents; this is a part drawn at random. 762 of them (4.5%) count as active. 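Active calls include both raised and lowered p65 entry, mostly lowered; wells with fewer than 50 cells lack a z-score.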 Raw values vary from plate to plate and are shown uncorrected.

no.	gene symbol	PubChem SID	p65 translocation robust z-score	nuclear/cytoplasmic p65 ratio, rep 1	nuclear/cytoplasmic p65 ratio, rep 2	low cell count flag	Outcome
1	Galm	SID315481134	0.63	1.76	1.48	enough cells to score	inactive
2	Cutc	SID315472406	-0.49	1.46	1.75	enough cells to score	inactive
3	Psmd12	SID315472766		1.58	1.26	fewer than 50 cells per well; well left out of scoring	inactive
4	C2cd4c	SID315479344		0.861	0	fewer than 50 cells per well; well left out of scoring	inactive
5	Lad1	SID315467712	-0.53	1.46	1.38	enough cells to score	inactive
6	Sav1	SID315472054	-0.72	1.31	1.15	enough cells to score	inactive
7	Necab3	SID315471699	0.91	1.76	1.62	enough cells to score	inactive
8	Pmepa1	SID315472148		1.55	1.22	fewer than 50 cells per well; well left out of scoring	inactive
9	Ppwd1	SID315479407		1.31	1.35	fewer than 50 cells per well; well left out of scoring	inactive
10	Lypd8l	SID315475569		1.5	1.28	fewer than 50 cells per well; well left out of scoring	inactive
11	Lce1b	SID315473611	-0.18	1.4	1.21	enough cells to score	inactive
12	Zfp688	SID315473761		1.5	1.78	fewer than 50 cells per well; well left out of scoring	inactive
13	Dhrs2	SID315474233		1.16	1.37	fewer than 50 cells per well; well left out of scoring	inactive
14	Or1aa2	SID315479983	-1.09	1.39	1.33	enough cells to score	inactive
15	Gpbp1l1	SID315475446		1.33	1.4	fewer than 50 cells per well; well left out of scoring	inactive
16	Zfp748	SID315477730		1.07	1.47	fewer than 50 cells per well; well left out of scoring	inactive
17	Ccdc120	SID315471283	-0.36	1.51	1.32	enough cells to score	inactive
18	Ammecr1	SID315471360	-0.41	1.54	1.57	enough cells to score	inactive
19	Hes1	SID315467180	-0.97	1.32	1.24	enough cells to score	inactive
20	Sinhcaf	SID315471445	1.52	1.52	1.39	enough cells to score	inactive
21	Efnb1	SID315466452	-1.18	1.31	1.21	enough cells to score	inactive
22	Tvp23b	SID315473073	0.06	1.37	1.36	enough cells to score	inactive
23	Tmem242	SID315474075		1.31	1.25	fewer than 50 cells per well; well left out of scoring	inactive
24	Radx	SID315476352	-1.09	1.43	1.37	enough cells to score	inactive
25	Or9g3	SID315480228	0.21	1.51	1.55	enough cells to score	inactive
26	Grina	SID315472261	-2.2	1.59	1.24	enough cells to score	active
27	Cpne5	SID315479477	0.81	1.64	1.44	enough cells to score	inactive
28	Dusp16	SID315474112	0.4	1.52	1.41	enough cells to score	inactive
29	Hsd3b1	SID315467314		1.16	1.17	fewer than 50 cells per well; well left out of scoring	inactive
30	Ptbp1	SID315468762	-0.64	1.44	1.3	enough cells to score	inactive
31	Or51b6b	SID315480718		1.43	1.29	fewer than 50 cells per well; well left out of scoring	inactive
32	Psmg3	SID315472482	-0.19	1.31	1.32	enough cells to score	inactive
33	Brinp2	SID315479529	1.8	1.55	1.75	enough cells to score	inactive
34	Azin2	SID315479639	-0.33	1.19	1.55	enough cells to score	inactive
35	Erh	SID315466556	2.19	1.8	1.61	enough cells to score	inactive
36	Ube3a	SID315469912	0.99	1.62	1.67	enough cells to score	inactive
37	Or10ag52	SID315481943	-1.26	1.43	1.42	enough cells to score	inactive
38	Zbtb44	SID315479229		1.15	1.11	fewer than 50 cells per well; well left out of scoring	inactive
39	Zbtb44	SID315480921	0.5	1.45	1.64	enough cells to score	inactive
40	Zfp959	SID315478384	-0.26	1.6	1.73	enough cells to score	inactive
41	Nsg2	SID315468254	1.72	2.1	1.68	enough cells to score	inactive
42	Nprl3	SID315467830	0.57	1.79	1.64	enough cells to score	inactive
43	Plcd1	SID315468577	1.46	1.67	1.63	enough cells to score	inactive
44	Olfr100	SID315481925	-1.87	1.4	1.26	enough cells to score	active
45	Aga	SID315465342	-0.08	1.47	1.74	enough cells to score	inactive
46	Yars1	SID315476591	0.43	1.46	1.31	enough cells to score	inactive
47	Tmem67	SID315481551	2.04	1.58	1.78	enough cells to score	inactive
48	Ly6g2	SID315478269	-0.99	1.41	1.7	enough cells to score	inactive
49	Klra10	SID315467660	1.01	1.58	1.54	enough cells to score	inactive
50	Atp5mc2	SID315473324	0.36	1.57	1.65	enough cells to score	inactive
51	Or7e178	SID315468302	0.75	1.62	1.6	enough cells to score	inactive
52	Pigw	SID315474013	0.52	1.38	1.3	enough cells to score	inactive
53	Zfp938	SID315479346	-2.27	1.43	1.16	enough cells to score	active
54	Ccdc86	SID315476723	0.57	1.73	1.56	enough cells to score	inactive
55	Polg2	SID315470838		1.6	1.17	fewer than 50 cells per well; well left out of scoring	inactive
56	Prkab1	SID315468686	0.86	1.55	1.52	enough cells to score	inactive
57	Igfbp2	SID315467410	-0.11	1.44	1.34	enough cells to score	inactive
58	Tmprss2	SID315470809		1.16	1.1	fewer than 50 cells per well; well left out of scoring	inactive
59	Sem1	SID315469225	-0.84	1.43	1.43	enough cells to score	inactive
